Reference: US11505580B2 (priority 2019, dated 2022)
Where no end group is shown, it is not given here.

Assay: peptide made by a vendor (Fmoc solid-phase peptide synthesis)
Details: whole synthesis, HPLC

EAGSAKELEGDPVAG
purity (crude or final not stated): 95% or more
